Screening data, single-dose tests

Amino acid sequences for entries named in this document (tags omitted).
UniProt I6X8D2, whole entry: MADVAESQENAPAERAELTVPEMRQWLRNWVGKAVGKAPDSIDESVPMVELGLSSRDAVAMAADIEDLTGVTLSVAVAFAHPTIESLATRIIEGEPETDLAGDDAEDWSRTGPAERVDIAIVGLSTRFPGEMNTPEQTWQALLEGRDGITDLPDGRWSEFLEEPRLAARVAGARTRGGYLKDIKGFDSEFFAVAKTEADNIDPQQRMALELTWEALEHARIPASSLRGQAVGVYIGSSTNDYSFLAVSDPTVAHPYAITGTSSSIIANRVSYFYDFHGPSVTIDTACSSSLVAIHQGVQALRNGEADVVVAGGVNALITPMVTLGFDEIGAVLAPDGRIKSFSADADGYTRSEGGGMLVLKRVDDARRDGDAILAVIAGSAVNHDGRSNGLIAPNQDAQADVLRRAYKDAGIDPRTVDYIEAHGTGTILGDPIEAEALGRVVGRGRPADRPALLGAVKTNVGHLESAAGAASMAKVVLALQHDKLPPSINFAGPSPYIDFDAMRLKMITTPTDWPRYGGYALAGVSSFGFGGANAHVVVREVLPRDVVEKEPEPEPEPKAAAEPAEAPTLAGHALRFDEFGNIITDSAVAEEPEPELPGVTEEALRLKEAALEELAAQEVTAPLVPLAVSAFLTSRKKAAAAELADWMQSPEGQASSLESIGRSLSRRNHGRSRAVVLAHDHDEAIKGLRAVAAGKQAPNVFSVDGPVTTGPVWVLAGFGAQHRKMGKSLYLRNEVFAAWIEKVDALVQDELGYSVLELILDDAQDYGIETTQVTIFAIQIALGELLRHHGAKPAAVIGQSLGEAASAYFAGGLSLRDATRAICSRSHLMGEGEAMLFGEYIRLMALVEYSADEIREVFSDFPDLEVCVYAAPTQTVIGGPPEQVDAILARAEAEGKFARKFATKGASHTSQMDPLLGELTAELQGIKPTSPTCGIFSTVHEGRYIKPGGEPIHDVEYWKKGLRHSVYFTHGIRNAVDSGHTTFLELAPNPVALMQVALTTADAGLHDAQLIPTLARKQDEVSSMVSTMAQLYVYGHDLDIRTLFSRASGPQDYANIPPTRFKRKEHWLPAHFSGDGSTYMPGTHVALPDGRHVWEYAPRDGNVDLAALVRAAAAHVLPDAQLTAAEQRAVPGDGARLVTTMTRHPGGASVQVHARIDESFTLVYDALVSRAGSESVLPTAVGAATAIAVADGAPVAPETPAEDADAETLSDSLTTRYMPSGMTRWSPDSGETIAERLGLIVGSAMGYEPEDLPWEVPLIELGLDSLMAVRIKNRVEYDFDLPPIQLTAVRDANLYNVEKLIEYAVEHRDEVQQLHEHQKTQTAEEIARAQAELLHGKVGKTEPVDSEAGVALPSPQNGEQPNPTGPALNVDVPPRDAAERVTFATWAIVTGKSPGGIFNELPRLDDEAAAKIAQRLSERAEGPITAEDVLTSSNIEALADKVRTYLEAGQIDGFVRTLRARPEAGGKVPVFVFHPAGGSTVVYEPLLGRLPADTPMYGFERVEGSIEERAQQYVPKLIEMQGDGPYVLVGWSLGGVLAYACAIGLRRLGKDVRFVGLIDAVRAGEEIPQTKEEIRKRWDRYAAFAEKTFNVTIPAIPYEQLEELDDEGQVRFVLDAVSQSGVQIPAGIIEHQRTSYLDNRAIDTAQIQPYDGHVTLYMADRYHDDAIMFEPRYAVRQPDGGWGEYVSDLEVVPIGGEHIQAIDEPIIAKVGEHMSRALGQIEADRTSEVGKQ

Measurements from “University of Dundee, Small-Polar-MMV Screening Library” (2021), ChEMBL document CHEMBL3988442.

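Polyketide synthase Pks13, Mycobacterium tuberculosis (UniProt I6X8D2). Enzyme assay of the thioesterase domain of polyketide synthase 13; the read-out is not stated. Tested at 30 µM. Higher reads as stronger inhibition (inferred from which compounds were picked for retests). Size under these conditions: about 67,000 compounds, about 300 of them at 50% or above in at least one test.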

Values are the deposited “Percent Effect”, in %.
The record does not define 0% and 100%; most values in the screen are far below 50% and negative numbers occur (in some assays of this library far below -100).
The compounds are a random part of those screened.

O=C1Nc2ccccc2C12CCCN(Cc1ccc3c(c1)OCCO3)C2 (centres unmarked) read -17.58%. CN1CCCC(c2cccc(-c3cccc(C(F)(F)F)c3)n2)C1 (centres unmarked) gave -7.828%. Result for O=C(CSC1CCCC1)N1CCN(c2ccc(-n3cncn3)nn2)CC1 was -14.92%. CCOC(=O)CCC(=O)N1CCC(Oc2ncccc2Cl)CC1 gave -29.84%. Result for CCCN1CCCN(C(=O)c2oc(C)nc2C)CC1 was -8.526%.

With COc1cc(C)ccc1OCC(=O)NS(=O)(=O)c1cc(F)ccc1F the screen gave -11.65%. With CSc1ccccc1C(=O)N1C[C@H]2CC[C@@H]1CN(C(=O)C1CCC1)C2 the screen gave -30.43%. CCc1cn[nH]c1C1CCCN(C(=O)c2cc(C#N)c(=O)[nH]c2C)C1 (centres unmarked) gave -27.13%. Cc1sc2c(C3CCCN(S(C)(=O)=O)C3)nc(C)n2c1C (centres unmarked) gave -13.1%. Result for CC(C(=O)N1CCN(Cc2ccc(C#N)cc2)CC1)n1ccnc1 (centres unmarked) was -5.11%.

CC(=O)c1cccc(CN2CC(Oc3ccccc3C)C2)c1 read -16.76%. Result for O=C(c1ccoc1)N1CCC2(CCC(=O)N2Cc2ccncc2)CC1 was -14.25%. Result for COCCN1CCC2(CC1)CC1(CCN(S(C)(=O)=O)CC1)N(C)C2=O was -23.51%. CCC(Nc1nnnn1-c1ccccc1)C(=O)Nc1nc(C)cs1 (centres unmarked) read 7.777%. Cc1ccc(OCCN(C)C(=O)NC(C)c2nncn2C)cc1 (centres unmarked) read 2.301%.

With CC[C@]12CN3C[C@](C)(CN(C1)C3c1[nH]c(=O)[nH]c(=O)c1C)C2=O (some centres unmarked) the screen gave -3.365%. With c1ccc(CN2Cc3[nH]nc(COc4cccnc4)c3C2)nc1 the screen gave -16.19%. For O=C(c1ccc(Cl)cc1)N1CCn2c(nn(-c3cccc(Cl)c3)c2=O)C1 the result was 2.007%. With COc1cccc(C2CCN2C(=O)c2cc(C(C)C)on2)c1 (centres unmarked) the screen gave -46.64%. With COc1ccc(CN(C)CC(=O)c2ccc3[nH]c(=O)[nH]c3c2)cc1F the screen gave -19.93%.

COC(=O)CN(C)Cc1cc(Br)cs1 read 19.29%. With COc1cccc2c1OCC(CNC(=O)COCC(F)(F)C(F)F)C2 (centres unmarked) the screen gave -19.77%. Cc1cc(N2CCC(Cc3cnccn3)C2)ncn1 (centres unmarked) read 8.267%. CC(NC(=O)NCCCN1CCCC1)c1nncn1C (centres unmarked) read -10.64%. Result for Cc1nnc([C@@H]2C[C@H]3CN(C4CCC4)C[C@H]3O2)[nH]1 was -14.84%.

With CC(C)CNC(=O)N1C[C@H]2CCN[C@H]2C1 the screen gave -14.21%. Fc1ccc(OCCNC2CCN(Cc3ccccn3)CC2)c(F)c1 read 19.51%. Result for CCN(CC)CC(=O)N1CCN(c2nc(C)cc(OC)n2)CC1 was -14.83%. NC(=O)C1CN(C(=O)Nc2ccccc2-c2cccs2)CCO1 (centres unmarked) read -6.064%. Result for O=C(CCn1ccc2cc(Br)ccc21)/N=c1\[nH]nc(C2CCCO2)s1 (centres unmarked) was 26.81%.

CCOc1ccccc1-n1c(C2CC2)n[nH]c1=O gave -5.371%. Result for O=C1O[C@@H]2CN(c3ccncc3)C[C@@H]2N1CCCc1ccc(F)cc1 was -35.84%. With Cn1ccnc1CCNC(=O)C1CCCN(Cc2cccc(F)c2)C1 (centres unmarked) the screen gave -12.59%. O=C(Cc1cccc(O)c1)N1CCCC(O)(CN2CCOCC2)CC1 (centres unmarked) read -1.818%. For Cc1ccc2ncnc(N3CCOCC3c3c(C)nn(C)c3C)c2c1 (centres unmarked) the result was -20.4%.

Cc1ccc(-n2cc(C(=O)NCC(C)Cn3cccn3)nn2)cc1 (centres unmarked) read -11.8%. With COC(=O)c1cccc(S(=O)(=O)NC(=O)c2ccccc2F)c1 the screen gave -27.81%. Result for CCOc1ccc(CNCC(O)c2ccccc2)cc1Cl (centres unmarked) was -10.65%. For CC(CNC(=O)CCc1ccco1)N1CCc2sccc2C1 (centres unmarked) the result was -2.852%. Result for CC1(C)CN(CC(O)C(C)(C)C)C(=O)CN(C(=O)c2ccccc2)C1 (centres unmarked) was 17.03%.

Result for Clc1snnc1CN1CCCCC1Cn1cncn1 (centres unmarked) was -32.71%. With Cn1ccc(C(=O)N2CCC(Cc3ccc4ncccc4c3)CC2)n1 the screen gave -0.416%. CN1CCN(C(CNC(=O)CCn2cccn2)c2cccs2)CC1 (centres unmarked) read -10.48%. For O=C(NCCc1ccccn1)Nc1cc(C(F)(F)F)c[nH]c1=O the result was -6.929%. With Cc1ccc(CN2CC3(CCNCC3)CCC2=O)c(F)c1F the screen gave -14.51%.

Result for C=C(C)CN1CCCC(NS(C)(=O)=O)C1 (centres unmarked) was -30.18%. Result for CN(CCc1ccccc1)C(=O)c1cc(CN2CCC(O)CC2)on1 was -29.97%. COc1ccc(CC(=O)NC2(C#N)CCOCC2)c(Cl)c1 read -5.203%.

Once more, the final 4:

compound,Percent Effect
Cc1ccc(CN2CC3(CCNCC3)CCC2=O)c(F)c1F,-14.51
C=C(C)CN1CCCC(NS(C)(=O)=O)C1 (centres unmarked),-30.18
CN(CCc1ccccc1)C(=O)c1cc(CN2CCC(O)CC2)on1,-29.97
COc1ccc(CC(=O)NC2(C#N)CCOCC2)c(Cl)c1,-5.203